Reference: article PMC8809574
Results are given in words; binding and its absence hold for the method and conditions named. Binding seen in cells or lysates may run through a third protein. Some entries that bind do so weakly or less than the wild type.

T1: TamA-G252C (E. coli) (UniProt P0ADE4)
T1 sequence: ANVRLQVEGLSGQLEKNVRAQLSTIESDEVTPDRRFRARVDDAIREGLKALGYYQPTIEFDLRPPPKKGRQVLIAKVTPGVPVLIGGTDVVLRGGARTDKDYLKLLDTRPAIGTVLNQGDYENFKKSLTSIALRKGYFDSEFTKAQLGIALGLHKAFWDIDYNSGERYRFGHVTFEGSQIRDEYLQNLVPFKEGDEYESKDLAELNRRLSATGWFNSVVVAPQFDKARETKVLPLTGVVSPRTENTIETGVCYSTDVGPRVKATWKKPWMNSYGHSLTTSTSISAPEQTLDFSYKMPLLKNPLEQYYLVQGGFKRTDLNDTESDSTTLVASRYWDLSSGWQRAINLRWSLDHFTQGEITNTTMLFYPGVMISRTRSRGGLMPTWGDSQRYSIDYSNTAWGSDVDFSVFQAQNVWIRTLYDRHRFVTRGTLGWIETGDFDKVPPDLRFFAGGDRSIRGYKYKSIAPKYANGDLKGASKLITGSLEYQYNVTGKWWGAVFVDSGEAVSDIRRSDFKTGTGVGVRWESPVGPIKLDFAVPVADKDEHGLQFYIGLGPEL

T2: TamA-G553C (E. coli) (UniProt P0ADE4)
T2 sequence: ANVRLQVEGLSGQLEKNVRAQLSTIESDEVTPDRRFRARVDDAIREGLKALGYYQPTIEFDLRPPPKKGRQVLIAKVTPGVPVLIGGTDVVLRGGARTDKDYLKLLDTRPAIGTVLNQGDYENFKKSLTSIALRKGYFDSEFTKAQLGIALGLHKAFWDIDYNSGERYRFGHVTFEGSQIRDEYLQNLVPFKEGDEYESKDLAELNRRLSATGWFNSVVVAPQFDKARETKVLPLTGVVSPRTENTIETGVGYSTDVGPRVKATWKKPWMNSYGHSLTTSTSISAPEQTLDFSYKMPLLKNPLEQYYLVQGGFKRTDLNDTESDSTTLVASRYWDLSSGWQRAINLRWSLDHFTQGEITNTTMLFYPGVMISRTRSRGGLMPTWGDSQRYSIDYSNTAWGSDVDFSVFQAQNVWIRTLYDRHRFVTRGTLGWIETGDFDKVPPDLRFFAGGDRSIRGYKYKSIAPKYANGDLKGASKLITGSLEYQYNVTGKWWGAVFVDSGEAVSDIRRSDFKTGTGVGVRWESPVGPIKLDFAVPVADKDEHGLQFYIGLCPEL


Assays:
[1] = biological target: T1, TamA-G252C (E. coli); assay: cross-linking; in situ disulphide cross-linking between introduced cysteines; membranes isolated from E. coli ΔtamA cells co-expressing tolC and tamA variants; total membranes and Triton X-114 aqueous and detergent-enriched phases (also sucrose density fractions 1 and 7) on nonreducing SDS-PAGE, immunoblot with antibodies raised against TamA; control membranes with TamA-G553C and native TolC
[2] = biological target: T2, TamA-G553C (E. coli); assay: as above

| Binder | binding [1] | binding [2] |
| --- | --- | --- |
| TamA-G252C (protein, UniProt P0ADE4 22-577) ANVRLQVEGLSGQLEKNVRAQLSTIESDEVTPDRRFRARVDDAIREGLKALGYYQPTIEFDLRPPPKKGRQVLIAKVTPGVPVLIGGTDVVLRGGARTDKDYLKLLDTRPAIGTVLNQGDYENFKKSLTSIALRKGYFDSEFTKAQLGIALGLHKAFWDIDYNSGERYRFGHVTFEGSQIRDEYLQNLVPFKEGDEYESKDLAELNRRLSATGWFNSVVVAPQFDKARETKVLPLTGVVSPRTENTIETGVCYSTDVGPRVKATWKKPWMNSYGHSLTTSTSISAPEQTLDFSYKMPLLKNPLEQYYLVQGGFKRTDLNDTESDSTTLVASRYWDLSSGWQRAINLRWSLDHFTQGEITNTTMLFYPGVMISRTRSRGGLMPTWGDSQRYSIDYSNTAWGSDVDFSVFQAQNVWIRTLYDRHRFVTRGTLGWIETGDFDKVPPDLRFFAGGDRSIRGYKYKSIAPKYANGDLKGASKLITGSLEYQYNVTGKWWGAVFVDSGEAVSDIRRSDFKTGTGVGVRWESPVGPIKLDFAVPVADKDEHGLQFYIGLGPEL | binds | – |
| TamA-G553C (protein, UniProt P0ADE4 22-577) ANVRLQVEGLSGQLEKNVRAQLSTIESDEVTPDRRFRARVDDAIREGLKALGYYQPTIEFDLRPPPKKGRQVLIAKVTPGVPVLIGGTDVVLRGGARTDKDYLKLLDTRPAIGTVLNQGDYENFKKSLTSIALRKGYFDSEFTKAQLGIALGLHKAFWDIDYNSGERYRFGHVTFEGSQIRDEYLQNLVPFKEGDEYESKDLAELNRRLSATGWFNSVVVAPQFDKARETKVLPLTGVVSPRTENTIETGVGYSTDVGPRVKATWKKPWMNSYGHSLTTSTSISAPEQTLDFSYKMPLLKNPLEQYYLVQGGFKRTDLNDTESDSTTLVASRYWDLSSGWQRAINLRWSLDHFTQGEITNTTMLFYPGVMISRTRSRGGLMPTWGDSQRYSIDYSNTAWGSDVDFSVFQAQNVWIRTLYDRHRFVTRGTLGWIETGDFDKVPPDLRFFAGGDRSIRGYKYKSIAPKYANGDLKGASKLITGSLEYQYNVTGKWWGAVFVDSGEAVSDIRRSDFKTGTGVGVRWESPVGPIKLDFAVPVADKDEHGLQFYIGLCPEL | – | binds |
| TolC-G45C (protein, UniProt P02930 23-493) ENLMQVYQQARLSNPELRKSAADRDAAFEKINEARSPLLPQLGLCADYTYSNGYRDANGINSNATSASLQLTQSIFDMSKWRALTLQEKAAGIQDVTYQTDQQTLILNTATAYFNVLNAIDVLSYTQAQKEAIYRQLDQTTQRFNVGLVAITDVQNARAQYDTVLANEVTARNNLDNAVEQLRQITGNYYPELAALNVENFKTDKPQPVNALLKEAEKRNLSLLQARLSQDLAREQIRQAQDGHLPTLDLTASTGISDTSYSGSKTRGAAGTQYDDSNMGQNKVGLSFSLPIYQGGMVNSQVKQAQYNFVGASEQLESAHRSVVQTVRSSFNNINASISSINAYKQAVVSAQSSLDAMEAGYSVGTRTIVDVLDATTTLYNAKQELANARYNYLINQLNIKSALGTLNEQDLLALNNALSKPVSTNPENVAPQTPEQNAIADGYAPDSPAPVVQQTSARTTTSNGHNPFRN | binds | binds |

Further lines, results first:

| binding [1] | binding [2] | Binder |
| --- | --- | --- |
| binds | binds | TolC-S287C (protein, UniProt P02930 23-493) ENLMQVYQQARLSNPELRKSAADRDAAFEKINEARSPLLPQLGLGADYTYSNGYRDANGINSNATSASLQLTQSIFDMSKWRALTLQEKAAGIQDVTYQTDQQTLILNTATAYFNVLNAIDVLSYTQAQKEAIYRQLDQTTQRFNVGLVAITDVQNARAQYDTVLANEVTARNNLDNAVEQLRQITGNYYPELAALNVENFKTDKPQPVNALLKEAEKRNLSLLQARLSQDLAREQIRQAQDGHLPTLDLTASTGISDTSYSGSKTRGAAGTQYDDSNMGQNKVGLCFSLPIYQGGMVNSQVKQAQYNFVGASEQLESAHRSVVQTVRSSFNNINASISSINAYKQAVVSAQSSLDAMEAGYSVGTRTIVDVLDATTTLYNAKQELANARYNYLINQLNIKSALGTLNEQDLLALNNALSKPVSTNPENVAPQTPEQNAIADGYAPDSPAPVVQQTSARTTTSNGHNPFRN |
| binds | binds | TolC-S68C (protein, UniProt P02930 23-493) ENLMQVYQQARLSNPELRKSAADRDAAFEKINEARSPLLPQLGLGADYTYSNGYRDANGINSNATSACLQLTQSIFDMSKWRALTLQEKAAGIQDVTYQTDQQTLILNTATAYFNVLNAIDVLSYTQAQKEAIYRQLDQTTQRFNVGLVAITDVQNARAQYDTVLANEVTARNNLDNAVEQLRQITGNYYPELAALNVENFKTDKPQPVNALLKEAEKRNLSLLQARLSQDLAREQIRQAQDGHLPTLDLTASTGISDTSYSGSKTRGAAGTQYDDSNMGQNKVGLSFSLPIYQGGMVNSQVKQAQYNFVGASEQLESAHRSVVQTVRSSFNNINASISSINAYKQAVVSAQSSLDAMEAGYSVGTRTIVDVLDATTTLYNAKQELANARYNYLINQLNIKSALGTLNEQDLLALNNALSKPVSTNPENVAPQTPEQNAIADGYAPDSPAPVVQQTSARTTTSNGHNPFRN |
| binds | binds | TolC-S253C (protein, UniProt P02930 23-493) ENLMQVYQQARLSNPELRKSAADRDAAFEKINEARSPLLPQLGLGADYTYSNGYRDANGINSNATSASLQLTQSIFDMSKWRALTLQEKAAGIQDVTYQTDQQTLILNTATAYFNVLNAIDVLSYTQAQKEAIYRQLDQTTQRFNVGLVAITDVQNARAQYDTVLANEVTARNNLDNAVEQLRQITGNYYPELAALNVENFKTDKPQPVNALLKEAEKRNLSLLQARLSQDLAREQIRQAQDGHLPTLDLTACTGISDTSYSGSKTRGAAGTQYDDSNMGQNKVGLSFSLPIYQGGMVNSQVKQAQYNFVGASEQLESAHRSVVQTVRSSFNNINASISSINAYKQAVVSAQSSLDAMEAGYSVGTRTIVDVLDATTTLYNAKQELANARYNYLINQLNIKSALGTLNEQDLLALNNALSKPVSTNPENVAPQTPEQNAIADGYAPDSPAPVVQQTSARTTTSNGHNPFRN |
